From US20030049732A1 come the findings set out here.

These are yes or no findings as the source states them, for the method shown. Binding seen in cells or lysates may run through a third protein. Some results given as binding are weak or reduced against the parent protein; the word gives no strength.

Assay [1] concerns the target T1, Caspase-9, P55211.
T1 chain: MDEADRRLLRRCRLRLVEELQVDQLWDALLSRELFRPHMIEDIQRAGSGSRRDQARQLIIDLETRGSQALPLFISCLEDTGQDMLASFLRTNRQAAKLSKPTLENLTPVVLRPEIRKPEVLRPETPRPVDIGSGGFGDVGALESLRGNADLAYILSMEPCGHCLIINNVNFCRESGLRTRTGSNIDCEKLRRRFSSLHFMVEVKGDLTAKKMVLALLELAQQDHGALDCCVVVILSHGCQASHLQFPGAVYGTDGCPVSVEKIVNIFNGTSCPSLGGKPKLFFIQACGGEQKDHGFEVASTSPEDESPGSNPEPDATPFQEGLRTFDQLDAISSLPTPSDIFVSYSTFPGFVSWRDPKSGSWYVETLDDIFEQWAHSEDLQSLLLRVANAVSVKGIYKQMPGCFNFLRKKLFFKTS
Kind of assay: co-immunoprecipitation from co-transfected 293T cells, immunoblot. The conditions noted are these: remark: other sources report otherwise. (A western blot detects proteins with antibodies after separation by electrophoresis.)

The target in assay [2] is T1, Caspase-9, P55211. The assay can be described thus: co-immunoprecipitation, tagged proteins transiently expressed in 293T cells. To be noted: remark: other sources report otherwise.
Another assay has as its target T2, Nod1 (human), Q9Y239.
T2 chain: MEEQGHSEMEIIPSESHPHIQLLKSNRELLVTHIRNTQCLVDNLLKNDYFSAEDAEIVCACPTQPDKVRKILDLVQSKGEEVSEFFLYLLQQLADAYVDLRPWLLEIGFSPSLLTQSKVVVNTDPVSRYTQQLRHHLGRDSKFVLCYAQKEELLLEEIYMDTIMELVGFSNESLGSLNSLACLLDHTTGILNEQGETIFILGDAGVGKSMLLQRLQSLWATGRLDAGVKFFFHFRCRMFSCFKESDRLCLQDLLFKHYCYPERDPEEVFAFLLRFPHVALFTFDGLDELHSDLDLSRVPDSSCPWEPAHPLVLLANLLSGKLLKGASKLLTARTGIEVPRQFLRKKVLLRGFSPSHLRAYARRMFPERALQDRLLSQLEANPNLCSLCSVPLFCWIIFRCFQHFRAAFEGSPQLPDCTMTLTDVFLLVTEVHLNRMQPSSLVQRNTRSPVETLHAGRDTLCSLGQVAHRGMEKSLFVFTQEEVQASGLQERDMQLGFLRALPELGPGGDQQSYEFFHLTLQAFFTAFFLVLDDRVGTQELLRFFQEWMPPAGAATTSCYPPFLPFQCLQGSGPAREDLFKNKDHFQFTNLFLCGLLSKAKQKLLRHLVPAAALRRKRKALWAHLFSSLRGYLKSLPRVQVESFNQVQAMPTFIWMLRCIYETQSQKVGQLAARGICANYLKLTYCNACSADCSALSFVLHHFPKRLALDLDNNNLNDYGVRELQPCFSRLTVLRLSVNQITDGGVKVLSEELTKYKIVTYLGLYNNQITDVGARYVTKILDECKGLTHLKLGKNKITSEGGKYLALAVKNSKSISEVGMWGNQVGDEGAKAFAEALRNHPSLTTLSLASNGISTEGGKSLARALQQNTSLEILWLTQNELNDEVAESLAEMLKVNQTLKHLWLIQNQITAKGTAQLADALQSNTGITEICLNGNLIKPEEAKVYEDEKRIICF
The assay is described as above. The conditions noted are these: remark: other sources report otherwise.

The target of a further assay is Caspase-9 (UniProt P55211). The assay can be described thus: co-immunoprecipitation from co-transfected 293T cells, immunoblot.

B1: Nod1, Q9Y239 1-953 (protein)
chain: MEEQGHSEMEIIPSESHPHIQLLKSNRELLVTHIRNTQCLVDNLLKNDYFSAEDAEIVCACPTQPDKVRKILDLVQSKGEEVSEFFLYLLQQLADAYVDLRPWLLEIGFSPSLLTQSKVVVNTDPVSRYTQQLRHHLGRDSKFVLCYAQKEELLLEEIYMDTIMELVGFSNESLGSLNSLACLLDHTTGILNEQGETIFILGDAGVGKSMLLQRLQSLWATGRLDAGVKFFFHFRCRMFSCFKESDRLCLQDLLFKHYCYPERDPEEVFAFLLRFPHVALFTFDGLDELHSDLDLSRVPDSSCPWEPAHPLVLLANLLSGKLLKGASKLLTARTGIEVPRQFLRKKVLLRGFSPSHLRAYARRMFPERALQDRLLSQLEANPNLCSLCSVPLFCWIIFRCFQHFRAAFEGSPQLPDCTMTLTDVFLLVTEVHLNRMQPSSLVQRNTRSPVETLHAGRDTLCSLGQVAHRGMEKSLFVFTQEEVQASGLQERDMQLGFLRALPELGPGGDQQSYEFFHLTLQAFFTAFFLVLDDRVGTQELLRFFQEWMPPAGAATTSCYPPFLPFQCLQGSGPAREDLFKNKDHFQFTNLFLCGLLSKAKQKLLRHLVPAAALRRKRKALWAHLFSSLRGYLKSLPRVQVESFNQVQAMPTFIWMLRCIYETQSQKVGQLAARGICANYLKLTYCNACSADCSALSFVLHHFPKRLALDLDNNNLNDYGVRELQPCFSRLTVLRLSVNQITDGGVKVLSEELTKYKIVTYLGLYNNQITDVGARYVTKILDECKGLTHLKLGKNKITSEGGKYLALAVKNSKSISEVGMWGNQVGDEGAKAFAEALRNHPSLTTLSLASNGISTEGGKSLARALQQNTSLEILWLTQNELNDEVAESLAEMLKVNQTLKHLWLIQNQITAKGTAQLADALQSNTGITEICLNGNLIKPEEAKVYEDEKRIICF
Consider B1, for which the binding result in the assay with Caspase-9, P55211 [1] was “binds”; with Caspase-9, P55211 [2] it was “binds”; with Nod1 (human), Q9Y239 it was “binds”.

B2: Nod1 mutant, residues 1-648 (protein)
chain: MEEQGHSEMEIIPSESHPHIQLLKSNRELLVTHIRNTQCLVDNLLKNDYFSAEDAEIVCACPTQPDKVRKILDLVQSKGEEVSEFFLYLLQQLADAYVDLRPWLLEIGFSPSLLTQSKVVVNTDPVSRYTQQLRHHLGRDSKFVLCYAQKEELLLEEIYMDTIMELVGFSNESLGSLNSLACLLDHTTGILNEQGETIFILGDAGVGKSMLLQRLQSLWATGRLDAGVKFFFHFRCRMFSCFKESDRLCLQDLLFKHYCYPERDPEEVFAFLLRFPHVALFTFDGLDELHSDLDLSRVPDSSCPWEPAHPLVLLANLLSGKLLKGASKLLTARTGIEVPRQFLRKKVLLRGFSPSHLRAYARRMFPERALQDRLLSQLEANPNLCSLCSVPLFCWIIFRCFQHFRAAFEGSPQLPDCTMTLTDVFLLVTEVHLNRMQPSSLVQRNTRSPVETLHAGRDTLCSLGQVAHRGMEKSLFVFTQEEVQASGLQERDMQLGFLRALPELGPGGDQQSYEFFHLTLQAFFTAFFLVLDDRVGTQELLRFFQEWMPPAGAATTSCYPPFLPFQCLQGSGPAREDLFKNKDHFQFTNLFLCGLLSKAKQKLLRHLVPAAALRRKRKALWAHLFSSLRGYLKSLPRVQVESFNQVQA
Turning to B2, in the assay with Caspase-9, the binding result is “binds”.
